This is an account of results in US20220370485A1, “COMPOUNDS AND METHODS FOR TREATING OR PREVENTING CARDIOVASCULAR DISEASES AND CONDITIONS” (Lexicon Pharmaceuticals, Inc., priority 2021, published 2022).

The subject of data set [1] is patients with type 2 diabetes mellitus recently hospitalized for worsening heart failure. The note with it: T2DM + worsening heart failure; N = 608.
Data set [2] concerns patients with type 2 diabetes mellitus, chronic kidney disease, and additional cardiovascular risk. The note with it: T2DM + CKD patients; N = 5292.

As for `CCOc1ccc(Cc2cc([C@@H]3O[C@H](SC)[C@@H](O)[C@H](O)[C@H]3O)ccc2Cl)cc1` [Sotagliflozin, (2S,3R,4R,5S,6R)-2-(4-chloro-3-(4-ethoxybenzyl)phenyl)-6-(methylthio)tetrahydro-2H-pyran-3,4,5-triol], the “Early discontinuation of the trial regimen for reasons other than death or early termination of the trial - percentage of patients” value in data set [1] is recorded as 13.0%. Besides, the “Early discontinuation of the trial regimen for reasons other than death or early trial termination - percentage of patients” value in data set [2] came to 10.9%.
